{"source": "patent US20260021167A1", "about": "“COMPOSITIONS AND METHODS FOR TREATING OR PREVENTING NEURODEGENERATIVE DISEASES” (Delaware State University, priority 2022, published 2026)", "type_in_all_cases": "cell-based, rat", "key": {"N27 dopaminergic cells": {"tested_on": "N27 dopaminergic cells", "assay": "Screening of SENP-1 inhibitors (LDH, MTT, ROS, Thioflavin-T) in PFF-induced PD model in vitro", "settings": "N27 dopaminergic cells after exposure to PFF for 24 hrs", "source_text": "Cell Viability Assay. The MTT assay is a colorimetric assay that is based on the conversion of water-soluble MTT (3-(4,5-dimethylthiazol-2-yl)-2,5-diphenyltetrazolium bromide) into formazan crystal by mitochondrial dehydrogenase enzymes, soluble in 100% DMSO. The resulting solution is purple in color, and the color intensity is proportional to the viable cells for each well in a 96-well plate. A variety of SENP-1 inhibitors, such as SUMO-2 aldehyde, Momordin lc, streptonigrin, hinokiflavone, oleanolic acid and siRNA of SENP-1, were treated in N27 cells after PFF (1 μg/ml) exposure for 24 h. After adding 5 mM MTT dye to cells, the color intensity in MTT assays was measured using a spectrophotometer (SpectraMax M5e, Molecular devices, Dover, USA), at 570 nm with a reference wavelength of 630 nm. […]\nCytotoxicity Assay. […] The cytotoxicity assay was measured using reagents from the Pierce LDH Cytotoxicity Assay Kit (88954, Thermo). […] The mixture was analyzed using a spectrophotometer (SpectraMax M5e, Molecular devices) at 490 nm with a reference wavelength of 680 nm.\nROS Levels and Thioflavin-T Assessment. […] The intensity of red fluorescence corresponding to ROS levels and green labels corresponding to protein aggregation was analyzed by blinded raters using ImageJ. […]"}, "N27 cells [1]": {"tested_on": "N27 cells", "assay": "Cell viability (MTT) assay after PFF exposure", "settings": "N27 cells after PFF (1 μg/ml) exposure for 24 h; compared to PFF only control", "source_text": "Cell Viability Assay. The MTT assay is a colorimetric assay that is based on the conversion of water-soluble MTT (3-(4,5-dimethylthiazol-2-yl)-2,5-diphenyltetrazolium bromide) into formazan crystal by mitochondrial dehydrogenase enzymes, soluble in 100% DMSO. The resulting solution is purple in color, and the color intensity is proportional to the viable cells for each well in a 96-well plate. A variety of SENP-1 inhibitors, such as SUMO-2 aldehyde, Momordin lc, streptonigrin, hinokiflavone, oleanolic acid and siRNA of SENP-1, were treated in N27 cells after PFF (1 μg/ml) exposure for 24 h. After adding 5 mM MTT dye to cells, the color intensity in MTT assays was measured using a spectrophotometer (SpectraMax M5e, Molecular devices, Dover, USA), at 570 nm with a reference wavelength of 630 nm. The cells were incubated with the MTT reagent (ab211091, Abcam) at 37° C. for 3 h, followed by solubilizing the formazan crystals in solution.\nIn this study, numerous commercially available SENP-1 inhibitors were tested for the recovery effects from preformed fibrils of alpha-synuclein (PFF)-induced PD models in vitro. […]"}, "N27 cells [2]": {"tested_on": "N27 cells", "assay": "ROS level (CellROX deep red) after PFF treatment", "settings": "compared to PFF only control", "method": "ROS Levels and Thioflavin-T Assessment. The reactive oxygen species (ROS) is a released byproduct during oxidative stress. On the other hand, thioflavin-T is an assay used to understand the level of protein aggregation that can be detrimental to cell survival. In order to assess the level of oxidative stress, all the SENP-1 inhibitors treated cells were incubated in media containing 5 μg/mL of the ROS reagent CellROX deep red reagent (C10422, Thermo Fisher Scientific) and 25 μg/mL of thioflavin-T reagent (CAS: 2390-54-7, Acros Organics) at 37° C. for 30 min. The cells were then washed 3 times with warm phosphate-buffered saline (PBS) without Ca^2+ or Mg^2+ (137 mM NaCl, 2.7 mM KCl, 4.3 mM Na2HPO4, and 1.47 mM KH2PO4), and several images from each well were collected using EVOS FL Cell Imaging Systems (Invitrogen, MA, USA). A minimum of 2 wells were dedicated to each group, and the experiments were repeated 3-4 times independently (total replicated: n=8-10/group). The intensity of red fluorescence corresponding to ROS levels and green labels corresponding to protein aggregation was analyzed by blinded raters using ImageJ."}}, "note": "At least one compound was matched to its structure with a doubt left."}
{"smiles": "O=c1cc(-c2ccc(Oc3c(O)cc4oc(-c5ccc(O)cc5)cc(=O)c4c3O)cc2)oc2cc(O)cc(O)c12", "note": "[Hinokiflavone, hinokiflavone]", "values": [{"measurement": "efficacy in preventing protein aggregation-mediated damage and reversing PFF-induced damage (LDH, MTT, ROS, Thioflavin-T assays)", "setting": "N27 dopaminergic cells", "result": "clearly efficacious"}, {"measurement": "cell viability from PFF-mediated toxicity (MTT assay)", "setting": "N27 cells [1]", "result": "significantly enhanced the cell viability"}, {"measurement": "level of ROS", "setting": "N27 cells [2]", "result": "reduced the level of ROS"}]}
